## Primary screen of a compound library

Each number is a percent effect as filed.
How 0% and 100% were set is not recorded. Most values in the screen are low, and negative values occur.
The compounds are a random part of those screened.
Two or more numbers in one place are separate tests of the same structure; such repeats can differ widely.

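Whole-cell growth test on Mycobacterium tuberculosis, read after 4 days in a medium based on cholesterol and the lipid DPPC; the read-out is not stated. Compounds at 50 µM. Higher reads as more growth inhibition (inferred: compounds with an IC50 in retests scored well above the rest). Of about 69,000 compounds tested this way, about 370 (0.54%) reached 50% or more in at least one test.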

SMILES,effect
COCC(=O)N1CCC2(CCCN(Cc3cc(OC)ccc3F)C2)C1 (configuration not stated),-9.773%
Cc1nc(CC(=O)NCCN2CCC(c3ccccc3C)C2)cs1 (configuration not stated),13.09%
CC(C)(C)c1oc(C(N)=O)cc1CN1CCCCC(N)C1 (configuration not stated),6.095%
O=C(Cc1cccc(F)c1)N1CCCCC1c1ccn2ccnc2n1 (configuration not stated),-31.28%
Cc1cccc(CN2CCOCC3(CCN(C4CCOCC4)C3)C2)c1.O=C(O)C(F)(F)F.O=C(O)C(F)(F)F (configuration not stated),-14.57%
Cc1nc2c(c(NCC(c3cccnc3)N3CCOCC3)n1)CCNC2 (configuration not stated),-12.41%
COCCN1CCC(C(=O)N(C)Cc2cccc(Cl)c2)C1 (configuration not stated),-21.15%
CC(C)(C)n1ncc(NCc2ccccc2)c(Cl)c1=O,21.85%
CCOCCCNC(=O)c1nn(CC)cc1Br,-16.65%
CCc1nc(CCNC(=O)NC2CCN(C(C)C)C2)sc1C (configuration not stated),0.6867%
O=C(O)C(F)(F)F.[H][C@]12CCC(=O)N(Cc3ccncc3)[C@@]1([H])CCN2C(=O)CC1CC1,3.102%
CN(CC(=O)NCC(F)(F)F)C(=O)c1ccc(C(=O)OC(C)(C)C)cc1,-18.9% & -1.809%
CCN(CCC1CCN(C(=O)NCc2nncn2CC)CC1)CC1CC1,-23.3%
CN1CCOC(CNCC(=O)NCCCc2ccccc2)C1 (configuration not stated),-28.81%
Cc1cnn(CC2CCCN2CCCS(C)(=O)=O)c1 (configuration not stated),28.48%
O=C(O)C(F)(F)F.O=C(O)C(F)(F)F.[H][C@@]12CCN(Cc3ccc(F)cc3)[C@]1([H])CC[C@H](COCc1cccnc1)O2,-2.562% & -7.091%
CSCCC(C)NC(=O)N(C)Cc1cc(Cl)cn1C (configuration not stated),3.142%
[H][C@@]12C[C@@H](Oc3cncnc3)CN1CCN(C(=O)c1ccncc1)C2,17.18%
O=C(c1ccoc1)N1CCn2nc(CN3CCSCC3)cc2C1,-44.62%
CN(C(=O)CC1=CCCCC1)C1CCCN(C2Cc3ccccc3C2)C1 (configuration not stated),11.68% & -12.97%
O=S(=O)(c1cc(F)ccc1F)N1CCCC1c1ccco1 (configuration not stated),17.75% & 26.55%
Cc1ccc(CNC(=O)CCSCc2csc(C)n2)cn1,-2.879%
O=C(O)C(F)(F)F.[H][C@@]12COC[C@H](C(=O)Nc3cnccn3)[C@]1([H])CN(C1CCCC1)C2,7.403% & -1.395%
Cc1ccc(CNCCS(=O)(=O)N2CCOCC2)cc1C,8.917% & -14.43%
[H][C@@]12CS(=O)(=O)C[C@]1([H])N(Cc1ccc(CCC)o1)CCN2C(=O)CC(C)C,22.16%
NC(=O)c1cc(C2CCCN(CCOCC3CC3)C2)n[nH]1 (configuration not stated),2.6%
Cc1nc(C2CCCN(C(=O)c3cccc4c3OCCO4)C2)no1 (configuration not stated),-15.73%
CCC(CNC(=O)c1ccccc1Br)N1CCc2ccccc2C1 (configuration not stated),4.755%
CCn1nnnc1-c1cccc(NC(=O)CCn2cc(C)cn2)c1,-11.94%
CCc1nc(C)c(C2CC(=O)Nc3c2c(-c2cccnc2)nn3C)[nH]1 (configuration not stated),-0.6893% & -14.68%
Cc1cnc(CNc2ccc(C(=O)NCc3ccco3)cc2C)o1,-1.573%
COc1cccc(C(=O)Nc2n[nH]c(C3CCCO3)n2)c1 (configuration not stated),-7.65%
CN1C(=O)CCc2cc(NC(=O)C3CCCC3)ccc21,-56.27%
CC(C)NC(=O)c1csc(NC2CC2)n1,14.24%
[H][C@@]12CS(=O)(=O)C[C@]1([H])N(Cc1ccc(OC)c(O)c1)CCN2CC1CC1,-3.681% & 6.249%
CC(NC(=O)Nc1ccccc1CN1CCOCC1)c1nnc(N)s1 (configuration not stated),-4.201%
Cc1ccc(C(=O)N2CCC3(CC2)CC(c2ccccc2)C(=O)N3)o1 (configuration not stated),3.177%
COc1ccccc1CN(C)C(=O)NCc1c(C)cc(C)[nH]c1=O,4.394%
CCOC1CC2(CCN(C(C)=O)CC2)c2cc(F)ccc21 (configuration not stated),4.482%
Cc1nc(C2(O)CCCNCC2)sc1CCOc1ccccc1F.Cl (configuration not stated),-2.044%
COCCN1Cc2nccn2CC(COCc2csc(C)n2)C1.O=C(O)C(F)(F)F.O=C(O)C(F)(F)F (configuration not stated),0.9623%
Cc1ccc2cnn(CCC(=O)NCc3c(C)nn(C)c3C)c2c1,-28.18%
Cc1ccc(CN2CCC3(CC(C(=O)NCC4CC4)=NO3)C2)cc1C (configuration not stated),0.178%
COc1ccc(-c2cnc(CN3CCn4c(C)nnc4C3)o2)cc1,4.635%
CCc1nc(CN(C)Cc2ncc(-c3cccs3)o2)cs1,48%
Cc1nc(Nc2ccccn2)cc(C2CCCN2Cc2ncc[nH]2)n1 (configuration not stated),12.2%
O=C(CNc1nc(C2CC2)ns1)N1CCc2sccc2C1,-2.345%
OC1CCCN(Cc2c(-c3ccco3)[nH]c3ncccc23)C1 (configuration not stated),-10.03%
CCc1n[nH]c(C2CN(C(=O)COCC(F)(F)F)CCO2)n1 (configuration not stated),-6.615%
Cc1ncccc1Oc1ncnc(N2CCC(O)(CO)CC2)c1C,13.16%
CCNC(=O)N(C)C(c1cccc(F)c1)c1ccccn1 (configuration not stated),-12.17%
CCCc1nc(CN2CCCC2Cn2cncn2)no1 (configuration not stated),-11.27%
COCC(Nc1ncnc2sc(C(=O)O)c(C)c12)c1ccnn1C (configuration not stated),-18.29%
COc1ccc(S(=O)(=O)NCc2cccnc2N(C)C)cc1,5.586%
COc1ncnc(N)c1CNCc1ccccc1-n1cccn1,10.17%
CNC(=O)NCC(=O)N1CCCC1Cc1cccc(F)c1 (configuration not stated),8.428%
CCOc1ccccc1C(CC(=O)Nc1ncc(C)s1)NC(C)=O (configuration not stated),-8.577%
Cn1nc(C(=O)N2CCOCC2)cc1C(=O)Nc1ncc(Cl)cc1Cl,15.2%
Cc1cc(NC(=O)N2CCOC(C(N)=O)C2)ccc1Br (configuration not stated),21.26%
Cn1cnnc1C1CCCN(C(=O)c2ccc3c(c2)OCCCO3)C1 (configuration not stated),5.23%
NC(=O)C1CCCN(S(=O)(=O)c2cnn(-c3ccccc3)c2)C1 (configuration not stated),-5.647%
CCCn1ccnc1CN1C[C@@H](CN2CCCCC2)[C@@H](CO)C1,-4.995%
CN1CCC(c2cccc(C(=O)N(C)C)n2)CC1,6.372%
CC(C)c1ccc(OCC(=O)N(C)C)cc1,17.77%
CN1CCCN(c2nccc(-c3cc(C(=O)O)ccn3)n2)CC1,-18.57%
Cc1ccc(C)n1-c1ccc(C(=O)NCCNc2ncccn2)cc1,0.2077%
O=C1CSC(C(F)(F)F)c2c(O)nn(C3CCCCC3)c2N1 (configuration not stated),-13.81%
O=C(O)C(F)(F)F.[H][C@@]12CCN(C3CCOCC3)C[C@@]1([H])[C@H](C(=O)NCc1ccco1)CCO2,-26.96%
Cc1ccc(OC2CCN(CCn3cncn3)CC2)cc1,7.753%
Cl.O=C(CCn1c(C(F)(F)F)cc2cccnc21)N1CCCC1,3.496%
[H][C@]12CC[C@]([H])(CN(Cc3ccncc3)C1)N(C(=O)CSc1ncccn1)C2,10.72%
[H][C@@]12CN(c3nc(C)cnc3C)C[C@]1([H])N(C1CCCC1)C(=O)O2,-2.809%
CS(=O)(=O)Cc1nc(CCc2ccccc2)nn1-c1ccccn1,12.64%
Cc1ccc(C2=CCN(C(=O)C3CCN(C)C(=O)C3)CC2)cc1 (configuration not stated),-13.72%
CCCn1c(C)c(CC(=O)NCCOC)c2c1CC(C)(C)CC2=O,6.025%
CCCC(=O)n1ccn(S(=O)(=O)c2ccc(C)cc2)c1=O,-6.937%
COC(=O)CNc1cc(C(=O)NCC(F)(F)F)cc(F)c1C,-3.07% & -19.25%
CCC(CO)N(Cc1ccccn1)C(=O)c1ccc(F)c(F)c1 (configuration not stated),8.817% & -3.889%
COc1nn(C)cc1C(=O)NCC(=O)NCc1cccnc1,-16.65%
O=S(=O)(C1CC1)N1CCC2(COCc3cnc(-c4cccnc4)nc32)C1 (configuration not stated),6.64%
O=S(=O)(c1cccs1)N1Cc2nc(COCC3CC3)oc2C1,-3.008%
CC(CC#N)N1CCN(C(=O)OC(C)(C)C)CC1 (configuration not stated),-8.163%

The values are deposited in ChEMBL (CHEMBL3988442, “University of Dundee, Small-Polar-MMV Screening Library” (2021)).